Tested on: dermis equivalent model consisting of a matrix of collagen seeded with normal human fibroblasts
Test: Dermo-decontracting effect on dermis equivalent model (spontaneous contraction of collagen gel)
Type: cell-based
Conditions: dermis equivalent test presented in Example 1

Structure (SMILES): C(=C\c1ccccc1)/CN1CCN(C(c2ccccc2)c2ccccc2)CC1 [cinnarizine]
- activity as dermo-decontracting agent in the test of Example 1: not active
